Experimental findings from article doi:10.1101/137711 are described below.

These are yes or no findings as the source states them, for the method shown. Some binding calls cover weakened binding; strength is not graded here. For some of these results: Where a sequence is shown, tags or fusion partners need not be part of it.

For assay [1], the target named is T1, Brn1 kleisin subunit of condensin, Brn1-HA3-His12 (S. cerevisiae) (UniProt P38170).
T1 sequence: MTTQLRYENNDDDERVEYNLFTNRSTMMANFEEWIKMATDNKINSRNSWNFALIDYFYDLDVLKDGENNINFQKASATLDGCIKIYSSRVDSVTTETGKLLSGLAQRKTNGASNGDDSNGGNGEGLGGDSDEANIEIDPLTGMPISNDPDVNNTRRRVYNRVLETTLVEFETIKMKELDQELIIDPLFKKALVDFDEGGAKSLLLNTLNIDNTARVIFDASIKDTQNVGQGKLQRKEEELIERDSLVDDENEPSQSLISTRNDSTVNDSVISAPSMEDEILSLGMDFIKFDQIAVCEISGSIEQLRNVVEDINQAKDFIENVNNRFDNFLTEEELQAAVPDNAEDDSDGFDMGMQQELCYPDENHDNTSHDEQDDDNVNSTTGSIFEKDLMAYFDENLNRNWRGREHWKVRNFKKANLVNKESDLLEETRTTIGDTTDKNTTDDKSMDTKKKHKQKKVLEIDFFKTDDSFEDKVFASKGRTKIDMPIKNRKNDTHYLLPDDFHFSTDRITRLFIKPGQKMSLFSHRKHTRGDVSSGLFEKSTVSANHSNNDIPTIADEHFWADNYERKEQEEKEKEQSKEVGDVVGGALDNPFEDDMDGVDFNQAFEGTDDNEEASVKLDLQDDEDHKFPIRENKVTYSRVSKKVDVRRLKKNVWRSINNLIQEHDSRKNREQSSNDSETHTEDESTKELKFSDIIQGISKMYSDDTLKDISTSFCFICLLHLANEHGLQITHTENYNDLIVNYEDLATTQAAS
Nature of the assay: tandem affinity co-purification + SEC.

The target of assay [2] is T2, Smc4(Q302L)-StrepII3, ATPase-deficient Q-loop mutant (S. cerevisiae) (UniProt Q12267).
T2 sequence: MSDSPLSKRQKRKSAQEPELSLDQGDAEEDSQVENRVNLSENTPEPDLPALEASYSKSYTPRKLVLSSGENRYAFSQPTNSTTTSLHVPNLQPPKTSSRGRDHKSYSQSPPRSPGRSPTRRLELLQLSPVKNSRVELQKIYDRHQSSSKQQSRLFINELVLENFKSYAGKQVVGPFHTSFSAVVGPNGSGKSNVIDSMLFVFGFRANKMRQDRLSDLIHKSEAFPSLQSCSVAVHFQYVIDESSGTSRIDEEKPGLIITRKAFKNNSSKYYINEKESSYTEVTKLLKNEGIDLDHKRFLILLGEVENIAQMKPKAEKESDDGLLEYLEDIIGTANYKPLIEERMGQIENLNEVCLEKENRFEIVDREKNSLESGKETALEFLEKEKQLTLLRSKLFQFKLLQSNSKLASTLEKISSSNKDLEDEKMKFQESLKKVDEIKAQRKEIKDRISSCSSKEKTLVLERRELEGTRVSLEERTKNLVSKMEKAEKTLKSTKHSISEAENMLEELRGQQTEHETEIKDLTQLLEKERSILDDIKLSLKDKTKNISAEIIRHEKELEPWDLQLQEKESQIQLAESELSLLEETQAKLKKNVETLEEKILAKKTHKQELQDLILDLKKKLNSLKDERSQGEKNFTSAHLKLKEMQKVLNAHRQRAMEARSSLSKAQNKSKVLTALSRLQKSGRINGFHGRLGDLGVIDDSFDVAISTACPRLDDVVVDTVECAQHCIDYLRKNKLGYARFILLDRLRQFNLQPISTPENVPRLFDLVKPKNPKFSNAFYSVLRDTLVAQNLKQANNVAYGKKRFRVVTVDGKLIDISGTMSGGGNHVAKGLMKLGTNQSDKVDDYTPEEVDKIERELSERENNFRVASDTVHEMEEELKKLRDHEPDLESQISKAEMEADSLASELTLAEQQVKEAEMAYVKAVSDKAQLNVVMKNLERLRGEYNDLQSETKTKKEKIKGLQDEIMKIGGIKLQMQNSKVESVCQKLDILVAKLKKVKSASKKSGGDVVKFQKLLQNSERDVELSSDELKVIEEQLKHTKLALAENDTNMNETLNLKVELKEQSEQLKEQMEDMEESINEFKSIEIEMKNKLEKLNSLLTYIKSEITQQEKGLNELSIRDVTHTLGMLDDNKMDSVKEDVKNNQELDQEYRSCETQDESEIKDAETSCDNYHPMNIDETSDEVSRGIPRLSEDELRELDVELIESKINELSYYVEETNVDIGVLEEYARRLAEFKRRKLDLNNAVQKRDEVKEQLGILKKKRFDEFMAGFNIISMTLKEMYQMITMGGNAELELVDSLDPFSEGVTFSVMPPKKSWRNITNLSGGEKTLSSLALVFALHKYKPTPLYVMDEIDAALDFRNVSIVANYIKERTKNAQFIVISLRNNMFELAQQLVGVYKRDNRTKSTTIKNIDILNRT
Nature of the assay: tandem affinity co-purification + SEC.

B1: Ycg1 HEAT-repeat subunit of condensin (protein, UniProt Q06680 1-1035)
chain: MQDPDGIDINTKIFNSVAEVFQKAQGSYAGHRKHIAVLKKIQSKAVEQGYEDAFNFWFDKLVTKILPLKKNEIIGDRIVKLVAAFIASLERELILAKKQNYKLTNDEEGIFSRFVDQFIRHVLRGVESPDKNVRFRVLQLLAVIMDNIGEIDESLFNLLILSLNKRIYDREPTVRIQAVFCLTKFQDEEQTEHLTELSDNEENFEATRTLVASIQNDPSAEVRRAAMLNLINDNNTRPYILERARDVNIVNRRLVYSRILKSMGRKCFDDIEPHIFDQLIEWGLEDRELSVRNACKRLIAHDWLNALDGDLIELLEKLDVSRSSVCVKAIEALFQSRPDILSKIKFPESIWKDFTVEIAFLFRAIYLYCLDNNITEMLEENFPEASKLSEHLNHYILLRYHHNDISNDSQSHFDYNTLEFIIEQLSIAAERYDYSDEVGRRSMLTVVRNMLALTTLSEPLIKIGIRVMKSLSINEKDFVTMAIEIINDIRDDDIEKQEQEEKIKSKKINRRNETSVDEEDENGTHNDEVNEDEEDDNISSFHSAVENLVQGNGNVSESDIINNLPPEKEASSATIVLCLTRSSYMLELVNTPLTENILIASLMDTLITPAVRNTAPNIRELGVKNLGLCCLLDVKLAIDNMYILGMCVSKGNASLKYIALQVIVDIFSVHGNTVVDGEGKVDSISLHKIFYKVLKNNGLPECQVIAAEGLCKLFLADVFTDDDLFETLVLSYFSPINSSNEALVQAFAFCIPVYCFSHPAHQQRMSRTAADILLRLCVLWDDLQSSVIPEVDREAMLKPNIIFQQLLFWTDPRNLVNQTGSTKKDTVQLTFLIDVLKIYAQIEKKEIKKMIITNINAIFLSSEQDYSTLKELLEYSDDIAENDNLDNVSKNALDKLRNNLNSLIEEINERSETQTKDENNTANDQYSSILGNSFNKSSNDTIEHAADITDGNNTELTKTTVNISAVDNTTEQSNSRKRTRSEAEQIDTSKNLENMSIQDTSTVAKNVSFVLPDEKSDAMSIDEEDKDSESFSEVC
B1: the binding result in assay [1] and in assay [2] was “binds” throughout.

B2: Smc2(Q147L), ATPase-deficient Q-loop mutant (protein, UniProt P38989 1-1170)
chain: MKVEELIIDGFKSYATRTVITDWDPQFNAITGLNGSGKSNILDAICFVLGIASMSTVRASSLQDLIYKRGQAGVTKASVTIVFDNTDKSNSPIGFTNSPQISVTRQVVLGGTSKYLINGHRAPQQSVLQLFQSVQLNINNPNFLIMLGKITKVLNMKPSEILSLIEEAAGTKMFEDRREKAERTMSKKETKLQENRTLLTEEIEPKLEKLRNEKRMFLEFQSTQTDLEKTERIVVSYEYYNIKHKHTSIRETLENGETRMKMLNEFVKKTSEEIDSLNEDVEEIKLQKEKELHKEGTISKLENKENGLLNEISRLKTSLSIKVENLNDTTEKSKALESEIASSSAKLIEKKSAYANTEKDYKMVQEQLSKQRDLYKRKEELVSTLTTGISSTGAADGGYNAQLAKAKTELNEVSLAIKKSSMKMELLKKELLTIEPKLKEATKDNELNVKHVKQCQETCDKLRARLVEYGFDPSRIKDLKQREDKLKSHYYQTCKNSEYLKRRVTNLEFNYTKPYPNFEASFVHGVVGQLFQIDNDNIRYATALQTCAGGRLFNVVVQDSQTATQLLERGRLRKRVTIIPLDKIYTRPISSQVLDLAKKIAPGKVELAINLIRFDESITKAMEFIFGNSLICEDPETAKKITFHPKIRARSITLQGDVYDPEGTLSGGSRNTSESLLVDIQKYNQIQKQIETIQADLNHVTEELQTQYATSQKTKTIQSDLNLSLHKLDLAKRNLDANPSSQIIARNEEILRDIGECENEIKTKQMSLKKCQEEVSTIEKDMKEYDSDKGSKLNELKKELKLLAKELEEQESESERKYDLFQNLELETEQLSSELDSNKTLLHNHLKSIESLKLENSDLEGKIRGVEDDLVTVQTELNEEKKRLMDIDDELNELETLIKKKQDEKKSSELELQKLVHDLNKYKSNTNNMEKIIEDLRQKHEFLEDFDLVRNIVKQNEGIDLDTYRERSKQLNEKFQELRKKVNPNIMNMIENVEKKEAALKTMIKTIEKDKMKIQETISKLNEYKRETLVKTWEKVTLDFGNIFADLLPNSFAKLVPCEGKDVTQGLEVKVKLGNIWKESLIELSGGQRSLIALSLIMALLQFRPAPMYILDEVDAALDLSHTQNIGHLIKTRFKGSQFIVVSLKEGMFANANRVFRTRFQDGTSVVSIM
B2: the binding entry in assay [1] and in assay [2] was “binds” each time.
